PubChem BioAssay AID504774 | Drosophila RNAi Screening Center, 2011

- Purpose: 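Fly genes whose loss alters survival after alkylation damage to DNA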 (primary screen)
- System: Drosophila Kc167 cells
- Reagents: long dsRNA against Drosophila genes, about 0.25 µg dsRNA per well
- Timing: about 6 days: 3 days knock-down, then 3 days with or without MMS
- Conditions: methyl methanesulphonate 0.004% (w/v) for 3 days after knock-down
- Measurement: 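ATP-dependent luminescence as a measure of live cells in MMS-exposed wells, quantile normalised within each plate, with replicate values also given as a mean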
- Scale: mean viability with MMS and viability with MMS: higher = more surviving cells after MMS
The deposit covers about 23,000 reagents; below is a random part of those with a known target gene and a result. 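Values are quantile-normalised luminescence on an arbitrary scale; higher means more cells surviving MMS.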 Names joined by + are all predicted targets of the reagent. Not all columns of the deposit are shown. Reagent sequences are not shown.

With Impbeta11 [SID104187317], what was measured?
mean viability with MMS: 3.39e6; viability with MMS, replicate 1: 3.94e6

What is on record for mip120 [SID104186752]?
mean viability with MMS: 3.64e6; viability with MMS, replicate 1: 4.01e6

Which result is listed for CG18477 + CG31780 [SID104181747]?
mean viability with MMS: 3.41e6; viability with MMS, replicate 1: 3.81e6

For CG2182 [SID104192100], how do the results read?
mean viability with MMS: 3.68e6; viability with MMS, replicate 1: 4.27e6

What is on record for Arfrp1 [SID104198209]?
mean viability with MMS: 3.69e6; viability with MMS, replicate 1: 4.12e6

With CG12213 [SID104194270], how do the results read?
mean viability with MMS: 3.60e6; viability with MMS, replicate 1: 4.07e6

Which result is listed for CG12213 [SID104201670]?
mean viability with MMS: 3.69e6; viability with MMS, replicate 1: 4.23e6

What is on record for Cht6 [SID104197793]?
mean viability with MMS: 3.49e6; viability with MMS, replicate 1: 4.00e6

With Cht6 [SID104197794], what does the deposit list?
mean viability with MMS: 3.08e6; viability with MMS, replicate 1: 3.69e6

With Cht6 [SID104198045], what was measured?
mean viability with MMS: 3.63e6; viability with MMS, replicate 1: 4.06e6

With Cht6 [SID104202568], what does the deposit list?
mean viability with MMS: 3.45e6; viability with MMS, replicate 1: 3.93e6

For RNaseP:RNA [SID104202324], what was measured?
mean viability with MMS: 3.56e6; viability with MMS, replicate 1: 3.93e6

What is on record for Coq4 + Gorab + frc [SID104190175]?
mean viability with MMS: 3.44e6; viability with MMS, replicate 1: 3.92e6

With CG8916 [SID104199912], what was measured?
mean viability with MMS: 3.53e6; viability with MMS, replicate 1: 4.04e6

For TBC1d7 [SID104195777], what was measured?
mean viability with MMS: 3.72e6; viability with MMS, replicate 1: 4.25e6

For CG14990 [SID104188241], what does the deposit list?
mean viability with MMS: 3.45e6; viability with MMS, replicate 1: 3.98e6

How did the screen score CG18048 [SID104192365]?
mean viability with MMS: 3.64e6; viability with MMS, replicate 1: 4.19e6

For Rpt6 [SID104200363], what was measured?
mean viability with MMS: 3.39e6; viability with MMS, replicate 1: 3.82e6

For Stim [SID104199950], what was measured?
mean viability with MMS: 3.57e6; viability with MMS, replicate 1: 3.95e6

Which result is listed for Atg101 [SID104199812]?
mean viability with MMS: 3.54e6; viability with MMS, replicate 1: 4.15e6

What did the screen give for cuff [SID104186107]?
mean viability with MMS: 3.42e6; viability with MMS, replicate 1: 3.85e6

For CG42450 [SID104199814], how do the results read?
mean viability with MMS: 3.50e6; viability with MMS, replicate 1: 4.08e6

With CG42450 [SID104202122], what does the deposit list?
mean viability with MMS: 3.43e6; viability with MMS, replicate 1: 3.94e6

With CG10877 [SID104194066], how do the results read?
mean viability with MMS: 3.66e6; viability with MMS, replicate 1: 4.20e6

For CG8944 [SID104199920], what does the deposit list?
mean viability with MMS: 3.49e6; viability with MMS, replicate 1: 3.92e6

With CG8944 [SID104201121], what was measured?
mean viability with MMS: 3.83e6; viability with MMS, replicate 1: 4.38e6

What is on record for SkpC [SID104200167]?
mean viability with MMS: 3.71e6; viability with MMS, replicate 1: 4.17e6

For CG5199 [SID104191562], what does the deposit list?
mean viability with MMS: 3.56e6; viability with MMS, replicate 1: 4.08e6

What is on record for CG1943 [SID104192368]?
mean viability with MMS: 3.58e6; viability with MMS, replicate 1: 4.00e6

How did the screen score CG5122 [SID104182608]?
mean viability with MMS: 3.57e6; viability with MMS, replicate 1: 4.03e6

With RabX6 [SID104188015], what was measured?
mean viability with MMS: 3.41e6; viability with MMS, replicate 1: 3.86e6

Which result is listed for ms(3)76Ba [SID104189883]?
mean viability with MMS: 3.59e6; viability with MMS, replicate 1: 4.11e6

What is on record for mRpL37 [SID104195854]?
mean viability with MMS: 3.64e6; viability with MMS, replicate 1: 4.13e6

With CG31373 [SID104195844], what does the deposit list?
mean viability with MMS: 3.65e6; viability with MMS, replicate 1: 4.07e6

For CG10214 [SID104194005], what does the deposit list?
mean viability with MMS: 3.44e6; viability with MMS, replicate 1: 4.01e6

Limited to “mean viability with MMS” (2 entries from above):
CG8944 [SID104201121]: 3.83e6
SkpC [SID104200167]: 3.71e6
